We go through one compound from publication PMC5861127, “3-pyridyl inhibitors with novel activity against Trypanosoma cruzi reveal in vitro profiles can aid prediction of putative cytochrome P450 inhibition” (Scientific Reports, 2018).

Where a name gives a salt, the structure may show the parent alone.

Series [1] has as its system T. cruzi amastigotes. The experiment in a line: 24 hour image-based assay. The format is cell-based. The settings on record: Trypanosoma cruzi, plateau/Emax concentrations, read-out: % activity at the Emax, 24 hours incubation. As to the method: Compounds were added to assay plates as described for the 48 hour assay, although incubation time was decreased to 24 hours. […] Two experimental replicates were performed.

Series [2] relates to T. cruzi amastigotes. Nature of the series: Wash-off assay to assess parasite survival following compound removal. The class given is cell-based. Particulars: Trypanosoma cruzi, 48 hours incubation, additional 72 hours without compound, read-out: percentage activity at the Emax, wash-off assay. The procedure:
The T. cruzi assay 48 hour assay was performed. Following, plates were washed 5 times with PBS (containing Mg^2+ and Ca^2+) on a Bravo liquid handler to remove compound pressure. Plates were incubated for an additional 72 hours and wells were washed 5 times before fluorescent labels were added. Plates were imaged on an Opera confocal-based high-content system with 7 fields per well acquired, at 20 times magnification. As considerable parasite egress was observed, only Emax concentrations were used for analysis. Four experimental replicates were undertaken.

The test system of series [3] is T. cruzi amastigotes. The experiment in a line: 96 hour image-based assay. The class given is cell-based. Particulars: Trypanosoma cruzi; difference 96 hours minus 48 hours; read-out: increase in activity at the Emax from 48 to 96 hours incubation. As to the method: The assay format was the same as the 48 hour assay, although plates were incubated for 96 hours. […] Two extra wash steps were included to remove as many extracellular parasites as possible to reduce impact on determination of intracellular parasites. Due to the level of egress in negative control wells, the number of infected cells was estimated as previously. Two experimental replicates were undertaken.

Series [4] has as its system T. cruzi epimastigotes. Nature of the series: 120 hour T. cruzi epimastigote assay (PrestoBlue). The class given is cell-based. The settings on record: Trypanosoma cruzi. As to the method: Additions were made with a Multidrop dispenser and compounds were added directly following parasite addition. Plates were incubated for 112 hours before the addition 10 µL of PrestoBlue® viability reagent (Thermo Fisher, USA). […] The positive control was NFX at a final concentration of 14.20 µM and 0.433% DMSO as a negative control.

For series [5], the system named is HEK293 cells. Nature of the series: HEK293 assay (resazurin). The format is cell-based, human. Particulars: 120 hours, 28.2 µM. As to the method: […] […] Plates were incubated for 24 hours before the addition of compounds. […] The positive control was 32.5 μM puromycin and the negative control was 0.433% DMSO, slightly different to the T. cruzi assay due to the change in volume, whilst utilising the same stock control plate. […] To determine the IC50 values of active compounds, DMSO samples were manually cherry picked from primary screening plates and diluted out in a log series of concentrations. […] […] This was only undertaken for the amastigote assay. Dilutions were prepared with a multichannel pipette ([…], Thermo Fisher Scientific, USA) in 384-well polypropylene plates (Corning, NY, USA).

The test system of series [6] is T. cruzi amastigotes. Nature of the series: T. cruzi image-based assay (48 hour, intracellular amastigotes in 3T3 host cells). The format is cell-based. Particulars: Trypanosoma cruzi. The procedure:
Control compounds used to assess the sensitivity of the T. cruzi amastigote assay were NFX, BZ and POSA. […] The assay was performed as previously described. […] One wash was undertaken by using a Multidrop plate dispenser and two washes with a Bravo liquid handling device (Agilent Technologies, USA). Five microlitres of compound were added to plates and incubated for 48 hours. Cells were then fixed and stained with Hoechst (Life Technologies, USA) and HCS CellMaskTM Green (Life Technologies, USA) and image acquisition was performed an OperaTM High Content Screening System (PerkinElmer, USA) at 20 times magnification. […] The maximum activity achievable (Emax) of compounds was determined by taking (or as close to, if concentrations in the Emax were limited) the percentage activity at the mid concentration within the plateau of activity in the concentration response curve (see Supplemental Fig. 1, example NFX). To determine the IC50 values of active compounds, DMSO samples were manually cherry picked from primary screening plates and diluted out in a log series of concentrations. […] Compound IC50 values in the TcCYP51 in vitro assay were calculated in GraFit (Erithacus software) by non-linear slope analysis. […] The significance of % clearance of parasites at compound Emax concentrations was calculated in Prism 5.0, using an unpaired student's t-test.

As a reminder, the IC50 is the midpoint of a concentration-inhibition curve. As for `CN1CCC[C@@H]1CCO[C@](C)(c1ccccc1)c1ccc(Cl)cc1` [CF, Clemastine fumarate], the Emax in series [1] was determined as 75.5%; in series [2], 96.8%; in series [3] it was 4.3%; in series [6] (48 h, DMSO stocks (CF from solid sample), relative to nifurtimox control) it was 96.8 ± 1.26%. The IC50 in series [4] stood at 6.4 ± 0.0217 µM; in series [6] (NIH3T3, 48 h, intracellular amastigotes in 3T3 cells, retested from DMSO stocks (CF from solid sample, temporal experiments)), 570 ± 39.6 nM. For the same compound, the “% activity against HEK293 cells at highest screening dose” value is given as 99.5% in series [5] and 99.5% at 28.2 µM^1 in series [5] (listed as Clemastine fumarate).
